According to PMC5732323:
No constants are given. Whether binding was seen depends on the method and setting. Binding seen in cells or lysates may run through a third protein. A result given as binding can be weak or reduced; the word gives no strength.

Sequences of proteins named here, by UniProt entry; tags and fusion partners are left off. A change or cut given only in a name is not applied to a line headed by its entry.
UniProt Q8BUN5: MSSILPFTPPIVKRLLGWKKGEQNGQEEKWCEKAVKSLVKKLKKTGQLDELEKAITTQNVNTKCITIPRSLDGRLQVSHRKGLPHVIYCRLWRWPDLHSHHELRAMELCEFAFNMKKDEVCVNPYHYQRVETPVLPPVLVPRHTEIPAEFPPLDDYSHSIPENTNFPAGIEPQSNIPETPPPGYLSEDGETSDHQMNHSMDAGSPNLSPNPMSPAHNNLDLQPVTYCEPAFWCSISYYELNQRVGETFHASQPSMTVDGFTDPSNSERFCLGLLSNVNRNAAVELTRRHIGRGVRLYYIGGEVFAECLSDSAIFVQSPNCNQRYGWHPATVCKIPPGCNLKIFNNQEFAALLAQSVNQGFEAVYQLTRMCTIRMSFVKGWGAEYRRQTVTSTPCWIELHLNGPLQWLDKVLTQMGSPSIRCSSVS
UniProt Q3TKT4: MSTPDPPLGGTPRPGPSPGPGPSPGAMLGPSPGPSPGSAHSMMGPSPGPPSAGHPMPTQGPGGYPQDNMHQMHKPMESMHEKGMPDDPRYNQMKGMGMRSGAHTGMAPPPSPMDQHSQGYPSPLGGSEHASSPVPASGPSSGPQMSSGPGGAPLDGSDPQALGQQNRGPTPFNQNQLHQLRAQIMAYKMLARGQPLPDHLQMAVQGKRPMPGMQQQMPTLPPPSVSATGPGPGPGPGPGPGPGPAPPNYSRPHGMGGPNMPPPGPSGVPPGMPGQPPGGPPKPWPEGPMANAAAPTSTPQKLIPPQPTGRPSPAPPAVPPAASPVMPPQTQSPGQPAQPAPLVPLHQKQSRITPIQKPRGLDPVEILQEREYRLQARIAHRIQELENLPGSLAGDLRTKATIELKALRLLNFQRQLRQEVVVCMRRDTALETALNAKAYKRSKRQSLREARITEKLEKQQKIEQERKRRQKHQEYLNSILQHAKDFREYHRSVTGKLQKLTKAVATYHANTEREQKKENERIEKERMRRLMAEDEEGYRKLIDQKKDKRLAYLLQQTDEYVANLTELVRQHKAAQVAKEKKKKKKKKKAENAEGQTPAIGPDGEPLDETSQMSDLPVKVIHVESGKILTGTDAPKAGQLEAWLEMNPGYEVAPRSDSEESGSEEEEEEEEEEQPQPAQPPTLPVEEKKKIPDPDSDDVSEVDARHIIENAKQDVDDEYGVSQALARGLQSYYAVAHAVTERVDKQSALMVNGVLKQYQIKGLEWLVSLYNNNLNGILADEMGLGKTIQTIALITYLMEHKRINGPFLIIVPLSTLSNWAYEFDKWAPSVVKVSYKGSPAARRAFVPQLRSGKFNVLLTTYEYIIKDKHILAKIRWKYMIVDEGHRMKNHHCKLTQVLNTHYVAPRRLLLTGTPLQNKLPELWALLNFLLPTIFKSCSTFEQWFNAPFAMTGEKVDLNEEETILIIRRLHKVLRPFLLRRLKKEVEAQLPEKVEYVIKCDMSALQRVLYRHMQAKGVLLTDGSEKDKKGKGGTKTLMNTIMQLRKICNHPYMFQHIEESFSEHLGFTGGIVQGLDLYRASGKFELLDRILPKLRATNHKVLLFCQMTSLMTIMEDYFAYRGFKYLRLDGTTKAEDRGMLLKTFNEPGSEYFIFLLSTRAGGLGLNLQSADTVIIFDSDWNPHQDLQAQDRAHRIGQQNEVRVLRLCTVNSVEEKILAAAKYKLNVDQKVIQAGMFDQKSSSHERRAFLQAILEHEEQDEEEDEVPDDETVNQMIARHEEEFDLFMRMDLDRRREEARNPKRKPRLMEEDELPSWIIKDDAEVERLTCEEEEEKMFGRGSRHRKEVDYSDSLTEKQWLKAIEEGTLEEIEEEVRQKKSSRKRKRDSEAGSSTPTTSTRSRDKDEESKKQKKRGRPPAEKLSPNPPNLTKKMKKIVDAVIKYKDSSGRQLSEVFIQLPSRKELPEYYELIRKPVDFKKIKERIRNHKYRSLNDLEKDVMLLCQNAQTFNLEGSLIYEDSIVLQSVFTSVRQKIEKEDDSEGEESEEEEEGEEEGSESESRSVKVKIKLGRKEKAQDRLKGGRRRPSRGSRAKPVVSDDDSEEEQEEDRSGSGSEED
UniProt Q99LT0: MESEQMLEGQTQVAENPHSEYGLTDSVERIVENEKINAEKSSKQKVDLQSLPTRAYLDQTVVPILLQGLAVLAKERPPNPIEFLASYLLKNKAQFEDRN
UniProt Q924H2: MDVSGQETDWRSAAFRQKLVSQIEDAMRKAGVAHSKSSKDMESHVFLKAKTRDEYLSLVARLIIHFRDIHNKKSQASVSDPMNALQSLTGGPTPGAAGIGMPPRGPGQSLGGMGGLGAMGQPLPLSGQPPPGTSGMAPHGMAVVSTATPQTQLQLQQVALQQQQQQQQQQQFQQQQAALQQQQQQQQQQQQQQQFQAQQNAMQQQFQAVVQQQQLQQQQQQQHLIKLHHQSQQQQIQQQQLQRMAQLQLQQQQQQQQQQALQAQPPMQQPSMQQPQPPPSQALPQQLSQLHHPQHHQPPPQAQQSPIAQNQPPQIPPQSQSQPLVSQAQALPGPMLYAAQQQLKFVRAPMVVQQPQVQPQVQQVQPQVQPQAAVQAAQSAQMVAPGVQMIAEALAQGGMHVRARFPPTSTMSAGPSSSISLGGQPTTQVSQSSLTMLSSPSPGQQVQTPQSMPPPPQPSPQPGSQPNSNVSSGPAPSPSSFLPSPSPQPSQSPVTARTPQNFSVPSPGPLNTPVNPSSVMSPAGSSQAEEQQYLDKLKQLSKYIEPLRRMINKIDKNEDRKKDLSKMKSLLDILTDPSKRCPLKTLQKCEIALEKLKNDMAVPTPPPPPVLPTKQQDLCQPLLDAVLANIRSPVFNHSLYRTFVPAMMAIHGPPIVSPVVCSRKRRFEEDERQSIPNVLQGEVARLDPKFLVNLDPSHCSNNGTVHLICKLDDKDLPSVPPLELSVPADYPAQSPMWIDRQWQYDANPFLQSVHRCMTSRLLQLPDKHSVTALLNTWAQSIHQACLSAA
UniProt P48432: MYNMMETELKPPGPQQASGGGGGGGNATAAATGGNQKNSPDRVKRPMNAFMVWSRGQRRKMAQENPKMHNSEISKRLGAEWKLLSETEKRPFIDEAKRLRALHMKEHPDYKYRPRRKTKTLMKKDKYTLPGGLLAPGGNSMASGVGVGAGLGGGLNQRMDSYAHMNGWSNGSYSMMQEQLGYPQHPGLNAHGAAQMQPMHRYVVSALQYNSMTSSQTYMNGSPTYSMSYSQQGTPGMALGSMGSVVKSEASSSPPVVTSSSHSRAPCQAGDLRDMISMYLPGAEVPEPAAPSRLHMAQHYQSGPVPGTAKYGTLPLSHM

Molecular target: constitutively active SMAD3 (SMAD3CA) (mouse) (UniProt Q8BUN5)
Test: co-IP; anti-SMAD3 on Protein G Dynabeads, 200 ug pre-cleared nuclear extract, IP buffer (20 mM HEPES, 1.5 mM MgCl2, 0.2 mM EDTA, 20% glycerol, 100 mM NaCl), 3 h at 4°C; MEFs at day 4 of MKOS reprogramming with Smad3CA expression; blots for the partners

## BRG1 (part of the SWI/SNF complex) (from UniProt Q3TKT4 1-1613)
  binding: binds

## DPY30 (part of the MLL complex) (from UniProt Q99LT0 1-99)
  binding: binds

## MED15 (part of the Mediator complex) (from UniProt Q924H2 1-789)
  binding: no binding

## SOX2 (from UniProt P48432 1-319)
  binding: binds
